Measured values published in patent publication US20050181516A1, “Bioequivalence determination using expression profiling” (priority 2002, published 2005).

System: gene expression (mRNA) in peripheral blood (lymphocytes)
Assay: Gene expression profiling (Affymetrix DNA microarrays) of blood samples of psoriatic patients before and after oral ASM981
Format: in vivo, human
Settings: of the list of modulated genes
Protocol: The dose used was 60 mg/day, given as 30 mg twice a day (b.i.d.). To make this dose the […] tablets were cut in half using a special cutter (Tablettenteiler NR.96) so as to obtain 30 mg of ASM981 or a matched amount of placebo.
ASM981 was evaluated as treatment for psoriasis using an oral dose of 60 mg (30 mg b.i.d) during a 4 weeks clinical study. The oral formulation used was a highly standardized oral dosage form that could be produced in large amounts and with a highly uniform composition, this was oral formulation A.
The cohort included 10 patients; 8 received oral formulation A and 2 received a placebo. Blood samples were collected before the first administration to establish the gene expression baseline and on days 13 or 14 after treatment with ASM981 or placebo and submitted to gene expression analysis in order to gain insights into the mechanisms of action of the compound.
The RNA from each of the blood samples was extracted and tested on individual DNA microarrays, thus allowing, for each patient, a comparison of gene expression before and after ASM981 treatment. […] Genes that were consistently modulated, i.e., change greater then a factor of two, were sorted in functional categories. […]
The data were analyzed comparing, for each individual patient, the gene expression levels before and after treatment. […]

CC[C@@H]1/C=C(\C)C[C@H](C)C[C@H](OC)[C@H]2O[C@@](O)(C(=O)C(=O)N3CCCC[C@H]3C(=O)O[C@H](/C(C)=C/[C@@H]3CC[C@H](Cl)[C@H](OC)C3)[C@H](C)[C@@H](O)CC1=O)[C@H](C)C[C@@H]2OC [ASM981, 33-Epichloro-33-desoxy-ascomycin]
share of down-regulated genes: 88%
